Measured values from PMC10938814.
Like-named read-outs stand apart in the source and are kept apart here. These are yes or no findings as the source states them, for the method shown. Binding seen in cells or lysates may run through a third protein. Some entries that bind do so weakly or less than the wild type. For some assays here: Sequences can lack the tags named with a protein. Values belong to the molecule of their own block, whether it stands above or below them.

Sequences of proteins named here, by UniProt entry; tags and fusion partners are left off.
UniProt P38606: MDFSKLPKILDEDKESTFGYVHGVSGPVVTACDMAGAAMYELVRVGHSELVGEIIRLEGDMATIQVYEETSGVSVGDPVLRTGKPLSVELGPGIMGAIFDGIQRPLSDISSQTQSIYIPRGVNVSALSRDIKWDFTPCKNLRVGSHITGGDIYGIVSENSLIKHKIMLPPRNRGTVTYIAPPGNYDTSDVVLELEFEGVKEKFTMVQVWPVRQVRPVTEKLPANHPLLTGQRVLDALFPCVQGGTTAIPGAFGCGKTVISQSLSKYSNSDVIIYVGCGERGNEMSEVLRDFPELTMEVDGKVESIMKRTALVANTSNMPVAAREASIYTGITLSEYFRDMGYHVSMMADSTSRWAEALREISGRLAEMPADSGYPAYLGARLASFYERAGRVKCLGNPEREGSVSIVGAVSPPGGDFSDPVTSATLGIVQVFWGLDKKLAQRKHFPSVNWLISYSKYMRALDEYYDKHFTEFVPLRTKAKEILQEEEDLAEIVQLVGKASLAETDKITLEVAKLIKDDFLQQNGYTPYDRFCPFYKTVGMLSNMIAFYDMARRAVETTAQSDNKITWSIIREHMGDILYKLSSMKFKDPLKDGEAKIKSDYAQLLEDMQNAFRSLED
UniProt P50516: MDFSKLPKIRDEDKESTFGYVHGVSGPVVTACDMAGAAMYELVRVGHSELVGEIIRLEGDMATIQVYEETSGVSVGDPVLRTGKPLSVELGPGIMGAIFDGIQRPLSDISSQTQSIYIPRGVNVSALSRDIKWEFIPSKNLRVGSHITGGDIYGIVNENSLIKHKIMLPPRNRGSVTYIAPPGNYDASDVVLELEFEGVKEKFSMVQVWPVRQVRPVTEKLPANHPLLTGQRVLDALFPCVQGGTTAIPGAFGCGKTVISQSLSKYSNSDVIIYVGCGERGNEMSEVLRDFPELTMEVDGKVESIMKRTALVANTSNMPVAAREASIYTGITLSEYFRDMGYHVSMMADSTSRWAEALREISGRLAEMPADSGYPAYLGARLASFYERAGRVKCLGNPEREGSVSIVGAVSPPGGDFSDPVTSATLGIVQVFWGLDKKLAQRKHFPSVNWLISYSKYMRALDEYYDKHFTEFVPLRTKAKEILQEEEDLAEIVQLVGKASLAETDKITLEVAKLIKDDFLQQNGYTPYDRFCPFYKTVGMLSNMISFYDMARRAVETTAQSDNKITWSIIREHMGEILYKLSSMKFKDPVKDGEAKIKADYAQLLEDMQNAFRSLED
UniProt P11142: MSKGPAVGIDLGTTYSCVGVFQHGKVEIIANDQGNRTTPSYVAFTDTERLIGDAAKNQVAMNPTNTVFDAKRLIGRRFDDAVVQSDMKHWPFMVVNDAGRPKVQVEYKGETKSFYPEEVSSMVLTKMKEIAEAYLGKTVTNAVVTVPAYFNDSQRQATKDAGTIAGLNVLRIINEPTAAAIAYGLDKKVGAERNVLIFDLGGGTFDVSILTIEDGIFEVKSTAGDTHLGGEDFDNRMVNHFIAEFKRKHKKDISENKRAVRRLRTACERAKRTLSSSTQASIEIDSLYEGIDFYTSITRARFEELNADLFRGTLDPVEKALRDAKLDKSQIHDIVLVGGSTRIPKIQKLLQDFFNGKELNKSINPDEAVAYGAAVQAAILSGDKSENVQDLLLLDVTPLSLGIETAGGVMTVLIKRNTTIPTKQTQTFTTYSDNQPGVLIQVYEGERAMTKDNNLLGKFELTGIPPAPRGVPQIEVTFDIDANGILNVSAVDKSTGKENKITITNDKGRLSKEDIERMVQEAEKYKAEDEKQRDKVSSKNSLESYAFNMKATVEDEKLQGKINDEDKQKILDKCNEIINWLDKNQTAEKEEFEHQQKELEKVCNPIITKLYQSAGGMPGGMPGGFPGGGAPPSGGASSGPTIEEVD

Assays:
[1] = target: T1, FLAG-Fbxo9 (HEK293T) (mouse) (UniProt Q8BK06); assay: co-IP; HEK293T cells transfected; FLAG-tagged partner precipitated with anti-FLAG beads, bound HA-tagged partner (or endogenous ATP6V1A, Fig. 2G) detected; NP40 lysis buffer, 1 h at room temperature, five washes with TBST
T1 sequence: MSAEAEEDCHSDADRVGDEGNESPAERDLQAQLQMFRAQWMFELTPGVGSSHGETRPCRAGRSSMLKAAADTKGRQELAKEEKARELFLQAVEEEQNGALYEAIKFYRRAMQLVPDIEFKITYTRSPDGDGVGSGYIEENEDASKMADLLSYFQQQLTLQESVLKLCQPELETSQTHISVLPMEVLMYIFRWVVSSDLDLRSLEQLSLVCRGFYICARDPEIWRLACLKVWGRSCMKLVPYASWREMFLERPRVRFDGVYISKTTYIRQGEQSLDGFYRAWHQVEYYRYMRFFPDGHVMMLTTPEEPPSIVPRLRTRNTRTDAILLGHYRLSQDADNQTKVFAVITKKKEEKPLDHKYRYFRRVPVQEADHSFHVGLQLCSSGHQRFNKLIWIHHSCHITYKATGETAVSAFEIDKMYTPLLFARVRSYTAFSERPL

[2] = target: full-length HA-tagged ATP6V1A (FL) (human) (UniProt P38606); assay: co-IP; HEK293T cells co-transfected; HA-tagged partner precipitated with anti-HA beads, bound FLAG-tagged partner detected with anti-FLAG; NP40 lysis buffer, 1 h at room temperature, five washes with TBST
[3] = target: endogenous ATP6V1A (human (endogenous in HEK293T and H1299)) (UniProt P38606); assay: co-IP; endogenous proteins in H1299 cells (control and FBXO9-knockout; interaction inhibited by the knockout); anti-ATP6V1A antibody, bound HSPA8 detected with anti-HSPA8
[4] = target: full-length HA-tagged ATP6V1A (FL) (human) (UniProt P38606); assay: co-IP; HEK293T cells co-transfected; HA-tagged partner precipitated with anti-HA beads, bound FLAG-tagged partner detected with anti-FLAG; NP40 lysis buffer, 1 h at room temperature, five washes with TBST; remark: listed apart in the source
[5] = target: HA-Atp6v1a (HEK293T) (mouse) (UniProt P50516); assay: as above

Molecule: endogenous HSPA8 (from UniProt P11142 1-646)
binding [3]: binds

B1: full-length FLAG-tagged FBXO9 (FL) (protein, UniProt Q9UK97 1-447)
chain: MPDIIWVFPPQAEAEEDCHSDTVRADDDEENESPAETDLQAQLQMFRAQWMFELAPGVSSSNLENRPCRAARGSLQKTSADTKGKQEQAKEEKARELFLKAVEEEQNGALYEAIKFYRRAMQLVPDIEFKITYTRSPDGDGVGNSYIEDNDDDSKMADLLSYFQQQLTFQESVLKLCQPELESSQIHISVLPMEVLMYIFRWVVSSDLDLRSLEQLSLVCRGFYICARDPEIWRLACLKVWGRSCIKLVPYTSWREMFLERPRVRFDGVYISKTTYIRQGEQSLDGFYRAWHQVEYYRYIRFFPDGHVMMLTTPEEPQSIVPRLRTRNTRTDAILLGHYRLSQDTDNQTKVFAVITKKKEEKPLDYKYRYFRRVPVQEADQSFHVGLQLCSSGHQRFNKLIWIHHSCHITYKSTGETAVSAFEIDKMYTPLFFARVRSYTAFSERPL
binding [4]: binds

B2: FLAG-Fbxo9 (HEK293T) (protein, UniProt Q8BK06 1-437)
chain: MSAEAEEDCHSDADRVGDEGNESPAERDLQAQLQMFRAQWMFELTPGVGSSHGETRPCRAGRSSMLKAAADTKGRQELAKEEKARELFLQAVEEEQNGALYEAIKFYRRAMQLVPDIEFKITYTRSPDGDGVGSGYIEENEDASKMADLLSYFQQQLTLQESVLKLCQPELETSQTHISVLPMEVLMYIFRWVVSSDLDLRSLEQLSLVCRGFYICARDPEIWRLACLKVWGRSCMKLVPYASWREMFLERPRVRFDGVYISKTTYIRQGEQSLDGFYRAWHQVEYYRYMRFFPDGHVMMLTTPEEPPSIVPRLRTRNTRTDAILLGHYRLSQDADNQTKVFAVITKKKEEKPLDHKYRYFRRVPVQEADHSFHVGLQLCSSGHQRFNKLIWIHHSCHITYKATGETAVSAFEIDKMYTPLLFARVRSYTAFSERPL
binding [5]: binds

More lines, now with the values ahead:

binding [1]: binds
Molecule: HA-Atp6v1a (HEK293T) (from UniProt P50516 1-617)

binding [2]: binds
Molecule: FLAG-HSPA8 (full-length, FL) (from UniProt P11142 1-646)
